# Results published in PubChem BioAssay AID2685 (National Center for Advancing Translational Sciences (NCATS), 2010).
# The list shows a part of the results. Further columns of the screen follow, without active or inactive calls. Compounds called inactive in the main read-out are mostly missing here. The note in brackets gives the kind of curve behind each potency; many fits are weak.
# Test: qHTS Assay for Lipid Storage Modulators in Drosophila S3 Cells;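 as to cell number change: cells counted by Cell Tracker Red CMTPX staining in the red channel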
# Conditions: BODIPY lipid droplet fluorescence, 18-24 h; for cell number change: measured here: cell count max response, cells fed with added oleic acid
# Method in brief: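 Laser-scanning cytometry quantifies lipid droplet accumulation (500–530 nm total intensity; droplet/cell object ratio) in oleic acid-fed (400 uM added) Drosophila S3 cells treated with a concentration series. 20 uM Triacsin C defined 100% inhibition.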
# [1] = measured here: cell number channel AC50, cells fed with added oleic acid
# [2] = measured here: lipid fluorescence (Fed channel) AC50, cells fed with added oleic acid
Compound,cell number change [%],AC50 [1],AC50 [2]
Cc1cc2ncc(S(C)(=O)=O)c(N)n2n1,30.8,"20.6 µM [rising, partial curve, poor fit]",
O=C(CSc1nnc(Cc2cc(=O)[nH]c(=O)[nH]2)n1-c1ccccc1)N1CCCCC1,9.62,,
O=C(CNCc1cccc(Cl)c1)N1CCc2ccccc2C1,145,"16.4 µM [rising, partial curve]","29.1 µM [rising, single point]"
Cc1ccc(Nc2nc3nonc3[nH]c2=O)cc1C,3.74,,"29.1 µM [falling, single point]"
Cc1ccccc1C(=O)c1cccn1CC(=O)NCc1ccc2c(c1)OCO2,21.8,,"6.51 µM [falling, single point]"
O=C(COC(=O)c1ccc(S(=O)(=O)NCc2ccco2)cc1)Nc1ccc(Cl)cn1,89.2,"23.1 µM [rising, partial curve]",
COc1ccc(S(=O)(=O)Nc2cccc(S(=O)(=O)N3CCCC3)c2)cc1OC,100,"18.4 µM [rising, single point]",
CCOc1ccc(-n2cc(C(=O)NCCOC)c3cc(OC)c(OC)cc3c2=O)cc1,31.4,"20.6 µM [rising, single point]",
CCN(Cc1ccncc1)C(=O)c1ccccc1NS(=O)(=O)c1ccc(Br)cc1,-3.52,,"4.11 µM [rising, full curve, poor fit]"
C#CCn1c(=NC(=O)CN2C(=O)CCC2=O)sc2cccc(C)c21,4.79,,"0.259 µM [falling, full curve, poor fit]"
NS(=O)(=O)c1ccc(NC(=O)CSc2nnc(COc3ccccc3Cl)n2C2CC2)cc1,-49.3,"25.9 µM [falling, single point]",
Cc1cc(/C=C2\SC(=S)N(C)C2=O)c(C)n1-c1cccc(O)c1,-2.45,,
CCN(CC(=O)NCc1cccs1)c1ccc(S(=O)(=O)N2CCCC2)cn1,16.5,"0.00517 µM [rising, full curve, poor fit]","2.31 µM [falling, single point]"
Cc1ccc(Nc2nc(N)nc(CC#N)n2)cc1,,"3.26 µM [rising, partial curve]","2.06 µM [rising, partial curve]"
CCOc1cc(-c2nc(-c3ccc(C)nc3OC)no2)cc(OCC)c1OCC,-2.03,,"0.291 µM [rising, partial curve]"
CN1CCN(CCNC(=O)c2ccc3nc(-c4ccc(F)cc4)c(-c4ccc(F)cc4)nc3c2)CC1,-17,,"1.16 µM [rising, full curve]"
Cc1ccc(C(=O)OCC(=O)Nc2sc3c(c2C#N)CCCC3)cc1NC(=O)c1ccco1,60,"1.84 µM [rising, full curve]",
NCC(=O)Nc1ccc(Cl)cc1C(=O)c1ccc[nH]1,-21,,"29.1 µM [rising, partial curve]"
COc1ccc([C@H]2CC(=O)C=C(c3ccc4ncccc4c3)C2)cc1,-31.3,"1.64 µM [falling, partial curve]",
Cc1cccc(-c2nnc3n2N=C(c2ccccc2)CS3)c1,5.42,,

# As entered above.
# For cell number change [%], Cc1ccc(Nc2nc3nonc3[nH]c2=O)cc1C shows 3.74
# For AC50 [2], Cc1ccc(Nc2nc(N)nc(CC#N)n2)cc1 shows 2.06 µM [rising, partial curve]
# For cell number change [%], O=C(COC(=O)c1ccc(S(=O)(=O)NCc2ccco2)cc1)Nc1ccc(Cl)cn1 shows 89.2

# The listing continues:

Compound,cell number change [%],AC50 [1],AC50 [2]
Cc1ccc(-c2n[nH]c3c2C(c2ccccc2)N(c2ccc(C(=O)O)cc2)C3=O)cc1 (stereo unspecified),-14.9,,
CCOc1ccc2nc(N3CCC(C(=O)N4CCN(C5CCCCC5)CC4)CC3)sc2c1,-16.1,,"9.2 µM [falling, partial curve, poor fit]"
Cc1ccsc1/C=N/N=C1\C(=O)Nc2ccccc21,,,"3.26 µM [rising, partial curve]"
O=C(NCc1ccccc1)c1cnc(-c2ccccn2)nc1C(F)(F)F,10.8,,
Cc1ccc(-c2csc(NC(=O)CSc3nnc4c(n3)[nH]c3ccccc34)n2)cc1,-41.4,"29.1 µM [falling, single point]","32.6 µM [falling, single point]"
Cc1ccc(Nc2nc(-c3ccc(F)cc3)cs2)nc1,21.1,,"6.51 µM [falling, single point]"
Cc1ccn2c(-c3csc(NCc4ccccc4)n3)c(C)nc2c1,-25.6,,"20.6 µM [falling, partial curve]"
CCC(=O)N(Cc1cccs1)C1CCOC(C)(C)C1 (stereo unspecified),-28.1,"1.16 µM [falling, full curve, poor fit]","20.6 µM [falling, single point]"
Cc1cccc(OCC(=O)N/N=C/c2cccn2C)c1,18.1,,"2.59 µM [rising, full curve]"
CCOc1ccccc1CNC(=O)c1cc2oc3ccccc3c2n1CC,,"6.51 µM [rising, single point]",
Cc1nnsc1C(=O)NCc1c(F)cccc1Cl,0.539,,"0.58 µM [falling, single point]"
O=c1[nH]cnc2c1C1(CCCC1)Cc1ccccc1-2,-81.9,,"29.1 µM [falling, single point]"
CCCCOC(=O)C1CCCC(C)N1 (stereo unspecified),13,,"3.66 µM [falling, partial curve]"
O=C(Cn1cnc2sc3c(c2c1=O)CCCC3)NCC(=O)Nc1c(F)cc(F)cc1Br,22.7,"0.92 µM [rising, partial curve, poor fit]","29.1 µM [rising, single point]"
COCCSc1nnc(NC(=O)CS(=O)(=O)c2ccc(C)cc2)s1,-8.57,,"6.51 µM [falling, single point]"
O=c1oc2ccc(NS(=O)(=O)c3cccc4cccnc34)cc2s1,-0.87,,"2.91 µM [rising, single point]"
CC(=O)c1c(C)[nH]c(C(=O)CSc2nc3ccccc3n2C)c1C,-21.5,,"6.51 µM [falling, single point]"
N#CC1=C(N)NC(SCc2ccccc2)=C(C#N)C12CCCCC2,0.562,"0.58 µM [rising, single point]",
CCCN(c1ccc(C(=O)OC)cc1)S(=O)(=O)c1ccccc1,20.9,,"13 µM [rising, partial curve, poor fit]"
